According to publication PMC7190641:
No constants are given. Whether binding was seen depends on the method and setting. Binding seen in cells or lysates may run through a third protein. These calls come from enrichment with a bait or labelling near it, and not all partners need be listed. For part of these data: Where a sequence is shown, tags or fusion partners need not be part of it.

Chains of the proteins cited; added tags and fusions are not shown. Lines headed by an entry give the natural chain unless they say otherwise; changes in a name come on top.
UniProt G5EG87: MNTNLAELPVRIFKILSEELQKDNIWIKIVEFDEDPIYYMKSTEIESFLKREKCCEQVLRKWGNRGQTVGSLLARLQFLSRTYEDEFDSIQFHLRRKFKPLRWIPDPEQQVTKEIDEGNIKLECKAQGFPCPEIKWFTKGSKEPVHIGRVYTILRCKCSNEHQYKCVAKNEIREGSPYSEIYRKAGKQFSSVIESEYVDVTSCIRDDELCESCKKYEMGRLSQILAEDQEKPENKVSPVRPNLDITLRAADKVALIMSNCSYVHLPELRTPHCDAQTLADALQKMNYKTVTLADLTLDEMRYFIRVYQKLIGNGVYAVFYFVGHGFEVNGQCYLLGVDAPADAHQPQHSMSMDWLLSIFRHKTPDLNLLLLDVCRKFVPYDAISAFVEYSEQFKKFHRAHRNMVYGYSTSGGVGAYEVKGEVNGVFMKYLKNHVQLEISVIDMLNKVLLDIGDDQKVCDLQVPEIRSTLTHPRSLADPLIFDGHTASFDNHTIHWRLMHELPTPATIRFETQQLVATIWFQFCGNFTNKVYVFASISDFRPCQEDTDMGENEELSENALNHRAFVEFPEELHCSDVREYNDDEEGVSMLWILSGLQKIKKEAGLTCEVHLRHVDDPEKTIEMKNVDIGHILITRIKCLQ

Legend:
Assay in all cases: affinity purification with mass spectrometry; IP of epitope-tagged bait from clarified C. elegans extract (lysis buffer A: 50 mM HEPES pH 7.4, 100 mM KCl, 0.05% NP40, 10% glycerol) with GFP-Trap MA, Myc-Trap MA or anti-FLAG M2 magnetic beads, 3-4 h at 4 °C; SDS-PAGE, LC-MS/MS, total spectral counts; controls: unrelated proteins with the same epitopes
[1] = target: MALT-1::GFP (GFP-tagged MALT-1 expressed pan-neuronally) (C. elegans) (UniProt G5EG87)
[2] = target: T1, NFKI-1::GFP (integrated nfki-1::gfp transgene) (C. elegans) (UniProt G5EDE9)
T1 sequence: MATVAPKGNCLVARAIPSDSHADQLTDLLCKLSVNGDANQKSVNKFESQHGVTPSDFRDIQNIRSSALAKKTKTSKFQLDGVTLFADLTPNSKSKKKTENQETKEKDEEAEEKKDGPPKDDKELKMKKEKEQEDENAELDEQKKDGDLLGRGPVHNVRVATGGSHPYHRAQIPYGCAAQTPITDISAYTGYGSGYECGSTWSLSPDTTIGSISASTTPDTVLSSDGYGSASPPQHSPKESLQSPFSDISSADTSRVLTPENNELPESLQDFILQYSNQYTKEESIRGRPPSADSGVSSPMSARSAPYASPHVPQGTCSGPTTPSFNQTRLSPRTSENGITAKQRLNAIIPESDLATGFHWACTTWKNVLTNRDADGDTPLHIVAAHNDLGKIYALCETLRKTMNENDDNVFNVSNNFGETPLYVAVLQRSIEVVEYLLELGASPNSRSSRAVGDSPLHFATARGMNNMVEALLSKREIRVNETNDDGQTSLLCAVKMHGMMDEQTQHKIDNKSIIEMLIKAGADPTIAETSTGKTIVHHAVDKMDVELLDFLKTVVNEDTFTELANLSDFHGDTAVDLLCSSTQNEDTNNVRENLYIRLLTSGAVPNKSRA

[3] = target: T2, PIK-1-Myc (endogenous PIK-1 tagged with a Myc epitope) (C. elegans) (UniProt G5ECP4)
T2 sequence: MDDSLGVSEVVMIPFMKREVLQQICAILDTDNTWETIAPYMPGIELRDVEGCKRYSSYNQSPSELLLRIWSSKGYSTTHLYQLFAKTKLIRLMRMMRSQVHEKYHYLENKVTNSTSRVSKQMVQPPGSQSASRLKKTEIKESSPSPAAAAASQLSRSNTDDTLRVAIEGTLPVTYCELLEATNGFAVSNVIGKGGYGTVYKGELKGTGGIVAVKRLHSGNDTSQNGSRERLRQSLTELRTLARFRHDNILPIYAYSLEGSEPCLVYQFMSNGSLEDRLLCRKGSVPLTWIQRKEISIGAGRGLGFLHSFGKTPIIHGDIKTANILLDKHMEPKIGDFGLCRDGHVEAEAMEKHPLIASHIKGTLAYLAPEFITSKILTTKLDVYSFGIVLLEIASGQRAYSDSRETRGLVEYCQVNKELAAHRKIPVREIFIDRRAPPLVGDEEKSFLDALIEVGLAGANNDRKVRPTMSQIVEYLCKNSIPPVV

Measured: binding

B1: ACTL-1 (endogenous, C. elegans extract) (protein, UniProt Q18008 1-360)
chain: MTKMKMDVTIELDLDGDDWEEVDVLSDKCVEDILEDVHIDDPILVSDVRITLPANIRIKNFKKEIRDLILANLDVPTTVSAGSWQIVSSFLRGIEYSEIGGRERNSKLSWKPFEDMHAQILVNALAYAQRVDILVKLKSYIDSNSYLKNVPEPMFAFADTDSMASTTTFSEYAEPVHSMNARKKILLLHYETTSKEKEDFKWFKCNLKNVLEKERKEGKDLEVFDVKVWEKDDRGNVFQELEKHYDLFPHIVVCFNKSYIEATKPNSKSKMPQFRKSISDKLNVEFHMNGNRNLRGRCVLMSEVEKVTDTYWAAVTNQYPFPGSFEPFVKRLLRDGKVKKQSHNNANDHHEDSMNYSITQ
binds: [1] | [2] | [3]
